Assay [1] concerns the target T1, Qa SNARE Vam3 (yeast (Saccharomyces Genome Database ids)), Q12241.
T1 chain: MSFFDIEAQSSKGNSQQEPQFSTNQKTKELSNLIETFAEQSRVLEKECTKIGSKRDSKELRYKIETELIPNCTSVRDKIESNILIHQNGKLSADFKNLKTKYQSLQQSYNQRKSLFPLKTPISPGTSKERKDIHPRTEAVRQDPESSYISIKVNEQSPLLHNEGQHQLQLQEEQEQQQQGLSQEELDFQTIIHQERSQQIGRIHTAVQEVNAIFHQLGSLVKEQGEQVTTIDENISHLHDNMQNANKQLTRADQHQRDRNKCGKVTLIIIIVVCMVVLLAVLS
Nature of the assay: liposome floatation (density gradient) with immunoblot; VML proteoliposomes with no SNAREs, single or several anchored SNAREs (1:2000 to lipid), 0.5 mM lipid, 1 µM added Sec17, Rb150, 0.04% defatted BSA, 1 mM MgCl2, 27°C 1 h; floated through Histodenz; bound Sec17 by Western blot; both purified. Particulars: remark: other sources report otherwise.

Assay [2] concerns the target T2, Qb SNARE Vti1 (yeast (Saccharomyces Genome Database ids)), Q04338.
T2 chain: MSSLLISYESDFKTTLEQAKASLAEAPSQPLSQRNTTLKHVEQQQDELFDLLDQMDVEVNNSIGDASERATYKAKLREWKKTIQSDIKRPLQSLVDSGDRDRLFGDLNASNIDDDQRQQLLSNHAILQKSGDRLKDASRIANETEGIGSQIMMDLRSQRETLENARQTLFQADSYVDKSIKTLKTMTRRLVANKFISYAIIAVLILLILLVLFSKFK
The assay is described as above. Particulars: remark: other sources report otherwise.

The target of assay [3] is T3, R SNARE Nyv1 (yeast (Saccharomyces Genome Database ids)), Q12255.
T3 chain: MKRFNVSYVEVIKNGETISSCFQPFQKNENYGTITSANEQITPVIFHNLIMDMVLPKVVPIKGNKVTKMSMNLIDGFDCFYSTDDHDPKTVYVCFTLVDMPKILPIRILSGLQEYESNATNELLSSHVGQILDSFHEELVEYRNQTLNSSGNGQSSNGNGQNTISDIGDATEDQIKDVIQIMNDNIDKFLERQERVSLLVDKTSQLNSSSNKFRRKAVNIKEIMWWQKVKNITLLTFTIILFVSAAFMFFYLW
The description is as above. The note with it: remark: other sources report otherwise.

Assay [4] concerns the target T4, 3Sec17:Sec18 complex (yeast (Saccharomyces Genome Database ids)) (UniProt P32602+P18759).
T4 sequence 1: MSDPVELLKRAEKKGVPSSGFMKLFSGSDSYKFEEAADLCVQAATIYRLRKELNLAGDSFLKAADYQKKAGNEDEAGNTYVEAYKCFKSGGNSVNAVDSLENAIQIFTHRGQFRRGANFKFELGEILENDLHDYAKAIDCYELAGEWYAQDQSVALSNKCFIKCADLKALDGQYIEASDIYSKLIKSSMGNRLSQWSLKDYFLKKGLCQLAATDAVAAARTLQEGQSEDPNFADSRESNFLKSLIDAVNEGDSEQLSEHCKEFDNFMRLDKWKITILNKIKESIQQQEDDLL
T4 sequence 2: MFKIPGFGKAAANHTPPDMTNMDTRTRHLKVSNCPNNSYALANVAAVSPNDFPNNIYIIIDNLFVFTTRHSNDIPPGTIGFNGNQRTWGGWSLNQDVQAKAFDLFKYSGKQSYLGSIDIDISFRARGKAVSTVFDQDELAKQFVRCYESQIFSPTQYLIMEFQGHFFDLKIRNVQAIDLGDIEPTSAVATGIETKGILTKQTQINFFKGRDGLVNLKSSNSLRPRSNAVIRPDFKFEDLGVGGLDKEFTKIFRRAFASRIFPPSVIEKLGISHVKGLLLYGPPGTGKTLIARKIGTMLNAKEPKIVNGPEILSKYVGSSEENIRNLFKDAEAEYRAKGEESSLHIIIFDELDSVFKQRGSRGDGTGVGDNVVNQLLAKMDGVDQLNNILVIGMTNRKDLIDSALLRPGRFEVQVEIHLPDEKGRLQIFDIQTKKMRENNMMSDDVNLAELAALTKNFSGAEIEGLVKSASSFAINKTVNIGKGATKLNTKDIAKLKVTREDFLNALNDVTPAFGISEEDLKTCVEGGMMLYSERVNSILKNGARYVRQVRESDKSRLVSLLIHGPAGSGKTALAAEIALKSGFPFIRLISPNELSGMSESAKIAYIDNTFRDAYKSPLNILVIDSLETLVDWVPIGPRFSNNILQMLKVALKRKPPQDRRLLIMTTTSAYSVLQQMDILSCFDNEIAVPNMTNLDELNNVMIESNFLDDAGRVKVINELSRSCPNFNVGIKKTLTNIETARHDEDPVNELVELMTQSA
In words: liposome floatation (density gradient) with immunoblot; protein-free VML liposomes, 1 mM Mg:ATPyS, where indicated 1 µM Sec17, 250 nM Sec18, 2 µM Qc; Rb150, 27°C 1 h; floated through Histodenz; bound proteins by Western blot; both purified. On the technique in general: Immunoblotting shows a protein as a band on a membrane.

No constants are given. Whether binding was seen depends on the method and setting. Some binding calls cover weakened binding; strength is not graded here. Where a sequence is shown, tags or fusion partners need not be part of it.

B1: Sec17 (natural protein, UniProt P32602 1-292, looked up)
chain: T4 sequence 1
notes: Sec17, yeast, YBL050W; Plasmid from Schwartz and Merz, 2009; also called Sec17/SNAP; wild-type Sec17; source: E. coli Rosetta2(DE3), purified (chitin resin, DTT cleavage, dialysed into Rb150)
As for B1, the binding entry in assay [1], in assay [2] and in assay [3] was “no binding (tested: 1 µM Sec17)” each time.

B2: Qc-SNARE Vam7 (protein, UniProt P32912 1-316)
chain: MAANSVGKMSEKLRIKVDDVKINPKYVLYGVSTPNKRLYKRYSEFWKLKTRLERDVGSTIPYDFPEKPGVLDRRWQRRYDDPEMIDERRIGLERFLNELYNDRFDSRWRDTKIAQDFLQLSKPNVSQEKSQQHLETADEVGWDEMIRDIKLDLDKESDGTPSVRGALRARTKLHKLRERLEQDVQKKSLPSTEVTRRAALLRSLLKECDDIGTANIAQDRGRLLGVATSDNSSTTEVQGRTNNDLQQGQMQMVRDQEQELVALHRIIQAQRGLALEMNEELQTQNELLTALEDDVDNTGRRLQIANKKARHFNNSA
Consider B2, for which the binding result in assay [4] is reported as “binds”.

(Values after article PMC12766925, “Functional assembly of the Qc-SNARE with Sec18 and Sec17 on membranes” (Molecular Biology of the Cell, 2025).)
